Article PMC3896488
Results are given in words; binding and its absence hold for the method and conditions named. In cells and extracts the contact can be indirect. Some results given as binding are weak or reduced against the parent protein; the word gives no strength.

The chains behind the UniProt entries cited, without tags or fusion partners. Where a name states a change or a piece, a line headed by the entry shows the natural chain unless it says otherwise. A line that says so, or that is headed by a name, gives the form on record, which may keep a tag or linker.
Protein kinase C β2 (rat (endogenous in Wistar rat heart)) (P68403, form named): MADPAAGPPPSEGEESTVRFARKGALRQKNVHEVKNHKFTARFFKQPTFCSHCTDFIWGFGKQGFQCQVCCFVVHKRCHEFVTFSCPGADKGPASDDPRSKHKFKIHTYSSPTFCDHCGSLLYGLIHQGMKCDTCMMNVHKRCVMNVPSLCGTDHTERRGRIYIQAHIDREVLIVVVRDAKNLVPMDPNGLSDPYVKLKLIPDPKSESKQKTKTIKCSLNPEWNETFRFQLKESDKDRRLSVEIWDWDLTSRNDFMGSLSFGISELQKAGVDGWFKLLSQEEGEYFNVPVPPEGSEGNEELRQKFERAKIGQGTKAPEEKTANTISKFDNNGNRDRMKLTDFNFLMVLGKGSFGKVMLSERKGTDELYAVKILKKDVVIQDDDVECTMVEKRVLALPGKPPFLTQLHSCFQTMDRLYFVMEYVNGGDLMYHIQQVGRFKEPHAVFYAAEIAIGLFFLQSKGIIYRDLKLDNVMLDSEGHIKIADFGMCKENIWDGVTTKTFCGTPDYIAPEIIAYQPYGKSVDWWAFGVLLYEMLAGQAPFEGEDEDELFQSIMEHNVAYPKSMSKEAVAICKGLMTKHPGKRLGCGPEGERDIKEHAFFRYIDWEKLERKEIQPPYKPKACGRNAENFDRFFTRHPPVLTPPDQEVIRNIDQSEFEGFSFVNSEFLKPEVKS

Target: Protein kinase C β2 (rat (endogenous in Wistar rat heart)) (UniProt P68403)
Assay: co-IP; 500 µg protein from control and diabetic rat hearts (untreated or perfused with 1 µM H-1152) incubated with anti-PKCβ2 or anti-ROCK2 antibody cross-linked to agarose resin (Pierce); Western blot of the precipitate

binding: binds
B1: phosphoinositide-dependent protein kinase-1 (enzyme, UniProt O55173 1-559)
chain: MARTTSQLYDAVPIQSSVVLCSCPSPSMVRSQTEPSSSPGIPSGVSRQGSTMDGTTAEARPSTNPLQQHPAQLPPQPRKKRPEDFKFGKILGEGSFSTVVLARELATSREYAIKILEKRHIIKENKVPYVTRERDVMSRLDHPFFVKLYFTFQDDEKLYFGLSYAKNGELLKYIRKIGSFDETCTRFYTAEIVSALEYLHGKGIIHRDLKPENILLNEDMHIQITDFGTAKVLSPDSKQARANSFVGTAQYVSPELLTEKSACKSSDLWALGCIIYQLVAGLPPFRAGNEYLIFQKIIKLEYDFPEKFFPKARDLVEKLLVLDATKRLGCEEMEGYGPLKAHPFFESITWENLHQQTPPKLTAYLPAMSEDDEDCYGNYDNLLSQFGCMQVSSSSSSHSLSAVDASLPQRSGSNIEQYIHDLDTNSFELDLQFSEDEKRLLLEKQAGGNPWHQFVENNLILKMGPVDKRKGLFARRRQLLLTEGPHLYYVDPVNKVLKGEIPWSQELRPEAKNFKTFFVHTPNRTYYLMDPSGNAHKWCRKIQEVWRQQYQSSPDAAVQ
